Data as given in paper PMC6079100.
These are yes or no findings as the source states them, for the method shown. Binding seen in cells or lysates may run through a third protein. Some binding calls cover weakened binding; strength is not graded here. Tags and fused reporters may be left off the sequences shown.

Protein sequences, listed by entry. Tags and fused reporters are not part of them.
UniProt Q15562: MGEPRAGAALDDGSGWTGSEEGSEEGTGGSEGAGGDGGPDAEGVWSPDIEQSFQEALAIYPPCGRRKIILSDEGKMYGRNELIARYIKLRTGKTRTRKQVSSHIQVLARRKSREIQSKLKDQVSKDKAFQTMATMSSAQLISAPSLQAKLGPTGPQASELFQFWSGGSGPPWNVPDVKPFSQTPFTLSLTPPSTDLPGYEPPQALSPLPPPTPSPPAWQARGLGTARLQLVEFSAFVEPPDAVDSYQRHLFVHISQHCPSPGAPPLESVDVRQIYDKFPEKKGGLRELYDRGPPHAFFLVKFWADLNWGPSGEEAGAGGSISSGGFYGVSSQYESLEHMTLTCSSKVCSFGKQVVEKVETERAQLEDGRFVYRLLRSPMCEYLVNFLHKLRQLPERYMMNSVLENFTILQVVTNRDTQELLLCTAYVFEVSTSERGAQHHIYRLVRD
UniProt Q13547: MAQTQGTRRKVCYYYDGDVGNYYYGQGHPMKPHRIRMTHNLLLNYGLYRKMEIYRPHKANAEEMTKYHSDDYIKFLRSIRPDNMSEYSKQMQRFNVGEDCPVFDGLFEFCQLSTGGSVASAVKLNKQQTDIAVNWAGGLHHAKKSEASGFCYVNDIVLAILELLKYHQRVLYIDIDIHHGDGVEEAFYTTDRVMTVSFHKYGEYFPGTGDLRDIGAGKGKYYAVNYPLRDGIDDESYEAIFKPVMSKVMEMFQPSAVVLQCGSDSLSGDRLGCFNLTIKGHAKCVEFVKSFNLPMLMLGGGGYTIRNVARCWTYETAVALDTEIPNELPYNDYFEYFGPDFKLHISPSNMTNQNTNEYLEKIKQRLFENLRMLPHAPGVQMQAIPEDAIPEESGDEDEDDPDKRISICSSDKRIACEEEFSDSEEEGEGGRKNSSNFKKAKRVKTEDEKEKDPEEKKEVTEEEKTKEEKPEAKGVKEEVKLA
UniProt O15379: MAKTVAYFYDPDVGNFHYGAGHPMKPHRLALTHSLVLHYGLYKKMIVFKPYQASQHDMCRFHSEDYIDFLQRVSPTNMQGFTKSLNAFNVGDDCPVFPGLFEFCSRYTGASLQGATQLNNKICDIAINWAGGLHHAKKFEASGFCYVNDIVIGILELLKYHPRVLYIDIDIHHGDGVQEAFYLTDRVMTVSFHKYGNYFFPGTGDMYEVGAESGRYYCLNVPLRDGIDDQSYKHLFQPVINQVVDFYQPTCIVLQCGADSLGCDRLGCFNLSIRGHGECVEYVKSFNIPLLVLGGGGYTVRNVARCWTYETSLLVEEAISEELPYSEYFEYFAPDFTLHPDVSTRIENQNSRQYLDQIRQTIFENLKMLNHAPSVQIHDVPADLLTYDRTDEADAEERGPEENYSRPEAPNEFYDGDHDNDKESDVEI

How the values were obtained:
V5-tagged TRPS1 = molecular target: T1, V5-tagged TRPS1 (UniProt Q9UHF7); test: co-IP; 293T cells expressing V5-TRPS1; HEGN buffer; V5 precipitates eluted with 1 mg/ml V5 peptide; Western blot for endogenous corepressor proteins
T1 sequence: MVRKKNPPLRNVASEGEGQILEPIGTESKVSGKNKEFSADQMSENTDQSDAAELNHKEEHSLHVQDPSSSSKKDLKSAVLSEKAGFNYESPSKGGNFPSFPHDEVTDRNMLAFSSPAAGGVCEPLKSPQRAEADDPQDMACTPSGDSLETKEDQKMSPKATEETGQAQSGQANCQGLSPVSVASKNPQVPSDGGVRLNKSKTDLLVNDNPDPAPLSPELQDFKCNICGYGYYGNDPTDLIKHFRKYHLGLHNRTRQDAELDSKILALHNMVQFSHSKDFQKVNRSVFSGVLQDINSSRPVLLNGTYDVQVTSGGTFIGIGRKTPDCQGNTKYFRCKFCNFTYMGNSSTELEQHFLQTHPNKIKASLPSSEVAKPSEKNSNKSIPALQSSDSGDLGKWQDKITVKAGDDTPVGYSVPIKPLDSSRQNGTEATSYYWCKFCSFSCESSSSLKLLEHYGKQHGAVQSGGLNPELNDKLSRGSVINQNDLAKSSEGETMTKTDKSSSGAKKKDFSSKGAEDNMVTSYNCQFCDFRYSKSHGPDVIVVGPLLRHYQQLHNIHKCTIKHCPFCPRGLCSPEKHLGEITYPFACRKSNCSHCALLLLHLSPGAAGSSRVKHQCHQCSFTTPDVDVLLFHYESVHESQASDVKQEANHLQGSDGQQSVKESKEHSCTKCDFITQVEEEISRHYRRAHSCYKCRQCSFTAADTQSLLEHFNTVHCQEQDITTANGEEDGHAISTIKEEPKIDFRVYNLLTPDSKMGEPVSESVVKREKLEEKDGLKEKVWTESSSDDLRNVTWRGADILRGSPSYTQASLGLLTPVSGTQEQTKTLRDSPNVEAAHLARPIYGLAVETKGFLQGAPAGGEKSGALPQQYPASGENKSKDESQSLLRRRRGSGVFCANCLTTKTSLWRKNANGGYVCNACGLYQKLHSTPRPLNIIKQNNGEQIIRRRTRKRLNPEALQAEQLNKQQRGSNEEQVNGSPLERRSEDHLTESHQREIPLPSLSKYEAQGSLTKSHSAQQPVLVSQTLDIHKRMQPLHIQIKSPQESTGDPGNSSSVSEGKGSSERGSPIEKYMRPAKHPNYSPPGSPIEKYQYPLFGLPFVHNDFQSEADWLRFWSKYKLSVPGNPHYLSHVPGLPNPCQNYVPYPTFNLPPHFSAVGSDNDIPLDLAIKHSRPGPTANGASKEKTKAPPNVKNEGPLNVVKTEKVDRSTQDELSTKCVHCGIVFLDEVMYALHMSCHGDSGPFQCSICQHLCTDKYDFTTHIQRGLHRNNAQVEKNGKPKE

[1] = molecular target: T2, TRPS1 expressed in 293T cells (exogenous co-immunoprecipitation with GAL4-tagged TEAD proteins) (UniProt Q9UHF7); test: co-IP; 293T cells co-expressing TRPS1 and GAL4-tagged TEAD proteins; lysis in HEGN buffer (120 mM KCl, 0.2% NP-40); precipitation with a TRPS1 antibody on Dynabeads overnight at 4 °C, IgG as control; Western blot
T2 sequence: T1 sequence

| binding (V5-tagged TRPS1) | binding [1] | Substance |
| --- | --- | --- |
| binds |  | CTBP2, endogenous in 293T cells (from UniProt P56545 1-445) |
|  | binds | GAL4-tagged TEAD2 (from UniProt Q15562 1-447) |
| binds |  | HDAC1, endogenous in 293T cells (from UniProt Q13547 1-482) (enzyme) |
| binds |  | HDAC3, endogenous in 293T cells (from UniProt O15379 1-428) (enzyme) |
